According to publication PMC8184998:
No constants are given. Whether binding was seen depends on the method and setting. In cells and extracts the contact can be indirect. Some entries that bind do so weakly or less than the wild type.

By UniProt entry, the sequences of proteins in these tests, tags left out.
UniProt P78395: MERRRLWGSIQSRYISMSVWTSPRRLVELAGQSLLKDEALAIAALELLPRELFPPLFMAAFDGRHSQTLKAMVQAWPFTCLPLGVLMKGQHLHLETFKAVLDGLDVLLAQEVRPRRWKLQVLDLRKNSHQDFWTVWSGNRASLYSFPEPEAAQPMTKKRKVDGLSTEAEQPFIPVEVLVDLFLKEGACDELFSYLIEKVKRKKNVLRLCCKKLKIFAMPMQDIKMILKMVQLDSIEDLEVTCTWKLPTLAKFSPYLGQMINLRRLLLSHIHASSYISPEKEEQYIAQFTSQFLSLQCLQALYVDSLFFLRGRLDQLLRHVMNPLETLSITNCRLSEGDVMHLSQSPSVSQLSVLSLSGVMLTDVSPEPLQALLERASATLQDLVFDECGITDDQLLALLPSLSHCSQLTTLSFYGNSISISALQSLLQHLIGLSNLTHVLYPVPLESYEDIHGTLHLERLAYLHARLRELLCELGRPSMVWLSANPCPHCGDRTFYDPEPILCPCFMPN
UniProt Q8N726: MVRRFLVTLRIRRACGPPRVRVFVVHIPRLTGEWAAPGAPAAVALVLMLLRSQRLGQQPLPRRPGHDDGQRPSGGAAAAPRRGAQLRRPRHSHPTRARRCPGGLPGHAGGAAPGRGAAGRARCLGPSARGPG
UniProt Q15370: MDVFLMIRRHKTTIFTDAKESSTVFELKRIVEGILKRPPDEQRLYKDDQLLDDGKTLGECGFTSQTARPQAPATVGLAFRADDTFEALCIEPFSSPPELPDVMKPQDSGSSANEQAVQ

How the values were obtained:
[1] = molecular target: HA-Prame (human) (UniProt P78395); test: co-IP; Flag-tagged p14/ARF and HA-tagged Prame transfected into HEK293T cells for 24 h; total cell lysates immunoprecipitated with anti-HA beads (blot Flag) or anti-Flag M2 beads (blot HA)
[2] = molecular target: Flag-p14/ARF (human) (UniProt Q8N726); test: as above
[3] = molecular target: p14/ARF (human (endogenous in HepG2 and H1299)) (UniProt Q8N726); test: co-IP; endogenous proteins; cells (H1299, HepG2) pretreated with MG-132 for 2 h; extracts incubated with primary antibody (p14/ARF or RBX1) or control IgG overnight at 4 °C, protein A/G magnetic beads 2 h; immunoblotting

Row | Substance | binding [3] | further results
1 | Flag-p14/ARF (from UniProt Q8N726 1-132) |  | binding [1]: binds
2 | HA-Prame (from UniProt P78395 1-509) |  | binding [2]: binds
3 | Preferentially Expressed Antigen in Melanoma (Prame) (from UniProt P78395 1-509) | binds | 
4 | Transcription Elongation Factor B Subunit 2 (EloB) (from UniProt Q15370 1-118) | binds | 
